# In all, about 1,800 compounds went through this assay and fewer than 10 were called active.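 Rule for the calls: active = inhibition of granule release above a set limit; inactive = the rest.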 The list shows a part of the results.
# Assay: LAMP-1 surface externalization blockers in TALL-104 cells – cell-based, flow cytometry, validation set (AID 651664)
# Settings: TALL-104 LAMP-1 externalization, at 15.2 µM, active compounds read high, stimulated with thapsigargin and PMA
row,SMILES,inhibition
1,COc1cccc(Nc2ncccc2C(=O)NCc2ccccc2)c1,inactive: 2.3%
2,Clc1ccc(-c2nnnn2-c2ccc(Cl)c(Cl)c2)cc1Cl,inactive: -0.4%
3,CCCn1c(NC(=O)c2ccccc2)nc2ccccc21,inactive: -3.6%
4,O=C1OC2CCC1(c1ccccc1)C2 (centres undefined),inactive: -2.8%
5,COc1ccc(C2NC(=O)c3sc(=S)n(-c4ccccc4)c3N2)cc1 (centres undefined),inactive: 0.2%
6,Cn1nc(-c2ccccc2)c(C(=O)Nc2ccc(Cl)cc2)c1Cl,inactive: 3%
7,COc1ccc(-c2noc(CN(C(=O)c3ccc(OC(C)=O)cc3)C(C)C)n2)cc1OC,inactive: -0.4%
8,CC(C)(C)Cc1nnc(NS(=O)(=O)Cc2ccccc2)s1,inactive: -1.1%
9,Cc1ccccc1S(=O)(=O)Cc1ccc(C(=O)N2CCN(c3ncccn3)CC2)o1,inactive: -1.8%
10,Cc1ccc(O)c(-c2cc(-c3ccccc3F)[nH]n2)c1,inactive: -0.7%
11,Cc1nn(-c2ccccc2)c2c1C(c1ccc(O)c(O)c1)N1C(=N2)C(Nc2ccccc2)=Nc2ccccc21 (centres undefined),inactive: -0.7%
12,CC(C)Sc1cc(N2CCOCC2)nc(-c2ccc(Cl)cc2)n1,inactive: -2.1%
13,Cn1c(=O)c2c3c(sc2n2cnnc12)CCC3,inactive: -0.8%
14,CCN(CC(=O)NCc1ccc(F)cc1)Cc1nc2cc(Cl)ccc2c(=O)[nH]1,inactive: -1.4%
15,COc1ccc(C(=O)c2ccccc2)c2c(O)ccc(C(=O)c3ccccc3)c12,inactive: 1.8%
16,Cc1cc(C)nc(NC(=O)c2c(-c3c(Cl)cccc3Cl)noc2C)n1,inactive: 0.9%
17,CCCC(=O)NNc1cc(=O)c2c(=O)n(C)c(=O)n(C)c2[nH]1,inactive: 1.5%
18,Cc1ccc2nc(-c3ccc4c(c3)OCCO4)cc(C(=O)O)c2c1,inactive: -1.6%
19,COc1ccc(C2/C(=C(/O)c3ccc(C)cc3)C(=O)C(=O)N2C)cc1 (centres undefined),inactive: -0.2%
20,Cc1ccccc1-c1nnc(SCC(=O)NC2CCCCC2)o1,inactive: -1.6%
21,Cc1ccccc1NC1C=CS(=O)(=O)C1 (centres undefined),inactive: 30.2%
22,Cc1cccnc1Nc1nc(-c2ccccn2)cs1,inactive: 2.4%

row,SMILES,inhibition
1,CC1(C)OC(=O)N(Cc2ccco2)C1(C)O (centres undefined),inactive: -1.3%
2,Cc1ccc(COn2c(-c3ccc(Cl)cc3Cl)nc3ncccc32)cc1,inactive: -0.8%
3,Cc1n[nH]c(C)c1CCCOc1ccccc1,inactive: -1.6%
4,S=c1[nH]nc(COc2ccc3ccccc3c2)o1,inactive: 25.8%
5,CC(=O)c1cccc(NC(=O)C2CCCN(S(=O)(=O)c3ccc(F)cc3)C2)c1 (centres undefined),inactive: -6.3%
6,CCc1nc(C)cn1S(=O)(=O)c1cc(OC)c(C)cc1C,inactive: 0.9%
7,COc1ccc(NC(=O)c2cccnc2N2CCCCC2)cc1,inactive: -1%
8,CC(C(=O)O)N1C(=O)CSc2ncccc21 (centres undefined),inactive: 2.4%
9,CN(C(=O)COC(=O)c1ccccc1Nc1ccccc1)C1CCS(=O)(=O)C1 (centres undefined),inactive: 14%
10,Cc1ccc(CNC(=O)c2ccccc2NC(=O)CSc2nnnn2C)cc1,inactive: -1.7%
11,O=C(Nc1ccc2ccccc2c1)c1onc2c1CCCC2,inactive: -0.5%
12,CC(C)(C)C(=O)/C(=C\c1cccc([N+](=O)[O-])c1)n1cncn1,inactive: 0%
13,CC(C)C(=O)NC(c1ccco1)c1ccc2cccnc2c1O (centres undefined),inactive: -2.7%
14,Oc1ccc(-c2onc3ccc(Cl)cc23)cc1,inactive: 2.3%
15,Cc1[nH]nc2c1C(c1ccc(OC(=O)c3ccco3)cc1)C(C#N)=C(N)O2 (centres undefined),inactive: -5.1%
16,COc1ccc(/C(O)=C2/C(=O)C(=O)N(CCCN(C)C)C2c2ccc(Cl)cc2)cc1OC (centres undefined),inactive: 6.2%
17,CCOC(=O)C(CCCOc1ccccc1)C(=O)OCC,inactive: 2.8%
18,O=c1/c(=C/c2ccc(O)cc2)sc2n1CCCN=2,inactive: 1.7%
19,CCOC(=O)COn1c2c(c3c4no[n+]([O-])c4ccc31)CCCC2,inactive: 0.5%
20,Cc1cc2c(c(N)n1)c(=O)oc1ccccc12,inactive: -1%
21,COc1ccc(C(=O)N2CCSC2=S)cc1OC,inactive: 4.8%
22,Cc1cccc(C)c1NC1=NC(=S)N(c2ccccc2)C12CCOC(C)(C)C2 (centres undefined),inactive: 0.3%

# Part of the list above in order of molecular weight, rising:
row,SMILES,inhibition
13,Cn1c(=O)c2c3c(sc2n2cnnc12)CCC3,inactive: -0.8%
20,Cc1ccccc1-c1nnc(SCC(=O)NC2CCCCC2)o1,inactive: -1.6%
14,CCN(CC(=O)NCc1ccc(F)cc1)Cc1nc2cc(Cl)ccc2c(=O)[nH]1,inactive: -1.4%

# The list continues.

row,SMILES,inhibition
1,CCOC(=O)c1c(C)[nH]c(C(=O)OCC(=O)NC2CCS(=O)(=O)C2)c1C (centres undefined),inactive: 3.9%
2,COc1cccc(C2C(C(=O)Nc3nc4ccccc4s3)=C(C)NC3=C2C(=O)CC(C)(C)C3)c1OC (centres undefined),inactive: 9%
3,CNC(=S)N1N=C(c2ccc(OC)cc2)CC1c1ccc(N(C)C)cc1 (centres undefined),inactive: 2.4%
4,Cc1[nH]c2ccccc2c1C(=O)CN1CCCCC1C (centres undefined),inactive: -1.1%
5,O=c1oc2ccccc2cc1-c1nc(-c2ccccc2)no1,inactive: 1.7%
6,N#CC(c1ccccc1)c1ccc(C(=O)c2ccc(F)cc2)cc1 (centres undefined),inactive: 14.5%
7,CCSc1nc(N2CCCCC2)c2c(c1C#N)CCCC2,inactive: 0.8%
8,O=C(Nc1ccc2[nH]c3c(c2c1)CCCC3)c1ccco1,inactive: 9%
9,CCOc1cccc(OCCCCN2CCOCC2)c1,inactive: 2.4%
10,COc1ccc(OC)c(-n2c(-c3cc(-c4ccc(F)cc4)n[nH]3)n[nH]c2=S)c1,inactive: -1.7%
11,O=C(CCCOc1ccccc1)N1CCN(c2ccccn2)CC1,inactive: -2.5%
12,COc1ccccc1N1C(=O)C2CC=CC(C)C2C1=O (centres undefined),inactive: 2.4%
13,CN(C)c1nc(SCc2ccccc2Cl)nc2c1CCCC2,inactive: -0.7%
14,CCOC(=O)c1c(NC(=O)Cc2cccs2)sc(C(=O)N2CCCCC2)c1C,inactive: -4.7%
15,Cc1cc(N2CCCC2)nc(SCC(=O)c2ccccc2)n1,inactive: -1%
16,Cc1ccc(C)c(N2CCN(c3nnnn3-c3ccccc3)CC2)c1,inactive: -2.1%
17,Cc1cc(NC(=O)CN2C(=O)NC(Cc3ccccc3)C2=O)no1 (centres undefined),inactive: 1.6%
18,COc1ccc(NC(=O)NCc2cccn2C)c(OC)c1,inactive: -1.6%
19,Cn1c(Cl)c(C(=O)Nc2ccc(Cl)cc2)c2ccccc21,inactive: 0.5%
20,CCOC(=O)Cn1c(N2CCCCCC2)nc2c1c(=O)[nH]c(=O)n2C,inactive: -4.4%
